Assay results: the supplement of paper PMC3682954
Structures can show the parent of a compound that is named as a salt. ± gives the standard deviation of the averaged measurements. This is one part of the list. Repeats are few or missing, and single values can be far off.

Tested on: RAW 264.7
Assay: HMGB1-induced TNF-alpha production relative to HMGB1-stimulated control; higher = more TNF-alpha secretion (less inhibition)
Conditions: stimulus: HMGB1 5 ug/ml, 18 h
[1] = compound concentration: 1 ug/ml

| SMILES | HMGB1-induced TNF-alpha production (compound concentration: 3 uM) | HMGB1-induced TNF-alpha production [1] |
| --- | --- | --- |
| COc1cccc(OC)c1OCCNCC1COc2ccccc2O1 (stereo not given) [WB-4101 hydrochloride] | 72.3% | – |
| O=C1NCN(c2ccccc2)C12CCN(CCCC(c1ccc(F)cc1)c1ccc(F)cc1)CC2 [Fluspirilene] | 54.4 ± 8.3% | – |
| O=C1NCN(c2ccccc2)C12CCN(CCCC(c1ccc(F)cc1)c1ccc(F)cc1)CC2 [Fluspirilen] | 72.6% | – |
| CC(C)(C)C(=O)OCOC(=O)[C@@H]1N2C(=O)[C@@H](NC(=O)[C@H](N)c3ccccc3)[C@H]2SC1(C)C [Pivampicillin] | 90% | – |
| O=[N+]([O-])c1cccc2c(Br)[nH]nc12 [3-Bromo-7-nitroindazole] | 65% | – |
| N=C(N)NC(=O)c1nc(Cl)c(N)nc1N [Amiloride hydrochloride] | 84.3% | – |
| N=C(N)NC(=O)c1nc(Cl)c(N)nc1N [Amiloride hydrochloride dihydrate] | 69.5% | – |
| N=C(N)NC(=O)c1nc(Cl)c(N)nc1N [Amiloride] | 84.2% | – |
| N=C(N)NC(=O)c1nc(Cl)c(N)nc1N | 80.3% | – |
| O=C(O)CCC(=O)N1CCC[C@H]1C(=O)O [N-Succinyl-L-proline] | 98.8% | – |
| CC(C)NCC(O)c1ccc(NS(C)(=O)=O)cc1 (racemic) [(±)-Sotalol hydrochloride] | 109% | – |
| O=C1c2cc(CO)cc(O)c2C(=O)c2c(OC3OC(CO)C(O)C(O)C3O)cccc21 (stereo not given) [Aloe-Emodin-8-O-glycoside] | – | 77% |
| CCCCOC(=O)c1ccc(N)cc1 [Butamben] | 99.8% | – |
| CCCCOC(=O)c1ccc(N)cc1 | 80.9% | – |
| O=C(Nc1ccc(C(=O)O)c(O)c1)c1ccccc1 | 89% | – |
| O=[N+]([O-])c1ccc2c(c1)S(=O)(=O)C=C2 [Stattic] | 13.7% | – |
| Nc1ccc(-c2ccc3ccccc3n2)cc1 [BF-170 hydrochloride] | 98.1% | – |
| CCOc1ccccc1OCC1CNCCO1 (stereo not given) [Viloxazine hydrochloride] | 110% | – |
| CC[C@H]1OC(=O)[C@H](C)[C@@H](O[C@H]2C[C@@](C)(OC)[C@@H](O)[C@H](C)O2)[C@H](C)[C@@H](O[C@@H]2O[C@H](C)C[C@H](N(C)C)[C@H]2O)[C@](C)(OC)C[C@@H](C)C(=O)[C@H](C)[C@@H](O)[C@]1(C)O | 89.1 ± 20% | – |
| CC[C@H]1OC(=O)[C@H](C)[C@@H](O[C@H]2C[C@@](C)(OC)[C@@H](O)[C@H](C)O2)[C@H](C)[C@@H](O[C@@H]2O[C@H](C)C[C@H](N(C)C)[C@H]2O)[C@](C)(OC)C[C@@H](C)C(=O)[C@H](C)[C@@H](O)[C@]1(C)O [Clarithromycin] | 89.1 ± 28% | – |
| CC(=O)SCC[N+](C)(C)C [Acetylthiocholine chloride] | 90.9% | – |
| O=C(Nc1nc2ccccc2n1CCN1CCOCC1)c1cccc([N+](=O)[O-])c1 [IRAK-1/4 Inhibitor I] | 105% | – |
| CCCCC1=NC2(CCCC2)C(=O)N1Cc1ccc(-c2ccccc2-c2nnn[nH]2)cc1 | 82.3 ± 18% | – |
| CC(C)COC(=O)OCN1C(=O)CN(CCN2CC(=O)N(COC(=O)OCC(C)C)C(=O)C2)CC1=O [Sobuzoxane] | 119% | – |
| NS(=O)(=O)c1cc2c(cc1Cl)N=CNS2(=O)=O | 94.5% | – |

Reprinted from the listing (5 entries):

| SMILES | HMGB1-induced TNF-alpha production (compound concentration: 3 uM) | HMGB1-induced TNF-alpha production [1] |
| --- | --- | --- |
| O=[N+]([O-])c1cccc2c(Br)[nH]nc12 [3-Bromo-7-nitroindazole] | 65% | – |
| N=C(N)NC(=O)c1nc(Cl)c(N)nc1N [Amiloride hydrochloride] | 84.3% | – |
| N=C(N)NC(=O)c1nc(Cl)c(N)nc1N [Amiloride hydrochloride dihydrate] | 69.5% | – |
| N=C(N)NC(=O)c1nc(Cl)c(N)nc1N [Amiloride] | 84.2% | – |
| N=C(N)NC(=O)c1nc(Cl)c(N)nc1N | 80.3% | – |

The list continues:

| SMILES | HMGB1-induced TNF-alpha production (compound concentration: 3 uM) | HMGB1-induced TNF-alpha production [1] |
| --- | --- | --- |
| NS(=O)(=O)c1cc2c(cc1Cl)N=CNS2(=O)=O [Chlorothiazide] | 71.3 ± 12% | – |
| CNS(=O)(=O)Cc1ccc2[nH]cc(CCN(C)C)c2c1 [Sumatriptan succinate] | 104% | – |
| CNS(=O)(=O)Cc1ccc2[nH]cc(CCN(C)C)c2c1 [Sumatriptan Succinate] | 88.3% | – |
| CNS(=O)(=O)Cc1ccc2[nH]cc(CCN(C)C)c2c1 | 110% | – |
| O=c1c(O)c(-c2ccc(O)c(O)c2)oc2cc(O)ccc12 [Fisetin] | – | 52.9% |
| CN[C@H](CC(C)C)C(=O)N[C@H]1C(=O)N[C@@H](CC(N)=O)C(=O)N[C@H]2C(=O)N[C@H]3C(=O)N[C@H](C(=O)N[C@H](C(=O)O)c4cc(O)cc(O)c4-c4cc3ccc4O)[C@H](O)c3ccc(c(Cl)c3)Oc3cc2cc(c3O[C@@H]2O[C@H](CO)[C@@H](O)[C@H](O)[C@H]2O[C@H]2C[C@](C)(N)[C@H](O)[C@H](C)O2)Oc2ccc(cc2Cl)[C@H]1O [Vancomycin hydrochloride] | 61.8% | – |
| CN[C@H](CC(C)C)C(=O)N[C@H]1C(=O)N[C@@H](CC(N)=O)C(=O)N[C@H]2C(=O)N[C@H]3C(=O)N[C@H](C(=O)N[C@H](C(=O)O)c4cc(O)cc(O)c4-c4cc3ccc4O)[C@H](O)c3ccc(c(Cl)c3)Oc3cc2cc(c3O[C@@H]2O[C@H](CO)[C@@H](O)[C@H](O)[C@H]2O[C@H]2C[C@](C)(N)[C@H](O)[C@H](C)O2)Oc2ccc(cc2Cl)[C@H]1O [Vancomycin hydrochloride from Streptomyces orientalis] | 104% | – |
| CN[C@H](CC(C)C)C(=O)N[C@H]1C(=O)N[C@@H](CC(N)=O)C(=O)N[C@H]2C(=O)N[C@H]3C(=O)N[C@H](C(=O)N[C@H](C(=O)O)c4cc(O)cc(O)c4-c4cc3ccc4O)[C@H](O)c3ccc(c(Cl)c3)Oc3cc2cc(c3O[C@@H]2O[C@H](CO)[C@@H](O)[C@H](O)[C@H]2O[C@H]2C[C@](C)(N)[C@H](O)[C@H](C)O2)Oc2ccc(cc2Cl)[C@H]1O | 98.8% | – |
| NC(=O)c1ncn([C@@H]2O[C@H](CO)[C@@H](O)[C@H]2O)n1 | 101% | – |
| NC(=O)c1ncn([C@@H]2O[C@H](CO)[C@@H](O)[C@H]2O)n1 [Ribavirin] | 97.2 ± 13% | – |
| CCOc1ccc2c(c1)C(C)=CC(C)(C)N2 [Ethoxyquin] | 97.8% | – |
| CCOC(=O)[C@H](CCc1ccccc1)N[C@@H](C)C(=O)N1[C@H](C(=O)O)C[C@@H]2CCC[C@@H]21 | 91.9 ± 1.4% | – |
| CCOC(=O)[C@H](CCc1ccccc1)N[C@@H](C)C(=O)N1[C@H](C(=O)O)C[C@@H]2CCC[C@@H]21 [Ramipril] | 96.4 ± 16% | – |
| Cn1c(=O)c2[nH]c(C3CCCC3)nc2n(C)c1=O [8-Cyclopentyl-1,3-dimethylxanthine] | 92.7% | – |
| C=NC(C(=O)NC1C(=O)N2C1SC(C)(C)C2C(=O)O)c1ccccc1 (stereo not given) | 79.8% | – |
| CC(C)COCC(CN(Cc1ccccc1)c1ccccc1)N1CCCC1 (stereo not given) [Bepridil] | 92.3% | – |
| CC(C)COCC(CN(Cc1ccccc1)c1ccccc1)N1CCCC1 (stereo not given) | 97.2% | – |
| CC(C)COCC(CN(Cc1ccccc1)c1ccccc1)N1CCCC1 (stereo not given) [Bepridil hydrochloride] | 71.3 ± 29% | – |
| O=C(O)c1cc(=O)c2ccccc2o1 | 86.4% | – |
| COc1ccc2oc(-c3ccccc3)c(OC)c(=O)c2c1 | – | 57.1% |
| NC(=S)c1ccc[n+]([C@@H]2O[C@@H](COP(=O)([O-])OP(=O)(O)OC[C@H]3O[C@@H](n4cnc5c(N)ncnc54)C(OP(=O)(O)O)[C@H]3O)C(O)C2O)c1 (stereo not given in full) [Thio-NADP sodium] | 103% | – |
| NS(=O)(=O)c1cc(C(=O)O)c(NCc2ccco2)cc1Cl [Furosemide] | 82.1 ± 15% | – |
| NS(=O)(=O)c1cc(C(=O)O)c(NCc2ccco2)cc1Cl | 83.1% | – |
| Cc1cc(C2CCCCC2)n(O)c(=O)c1 [Ciclopirox ethanolamine] | 59.9% | – |
| Cc1cc(C2CCCCC2)n(O)c(=O)c1 | 76.6% | – |

| SMILES | HMGB1-induced TNF-alpha production (compound concentration: 3 uM) | HMGB1-induced TNF-alpha production [1] |
| --- | --- | --- |
| O=c1ccn(C2OC(COc3ccc([N+](=O)[O-])cc3)C(O)C2O)c(=O)[nH]1 (stereo not given) | – | 76.8% |
| COc1cc(C(=O)NS(=O)(=O)c2ccccc2C)ccc1Cc1cn(C)c2ccc(NC(=O)OC3CCCC3)cc12 [Zafirlukast] | 113 ± 6.3% | – |
| COc1cc(C(=O)NS(=O)(=O)c2ccccc2C)ccc1Cc1cn(C)c2ccc(NC(=O)OC3CCCC3)cc12 | 131% | – |
| COc1ccc(C2C(=O)c3ccccc3C2=O)cc1 | 96.7% | – |
| Cc1cccc(C)c1NC(=O)C1CCCCN1C (stereo not given) [Mepivacaine hydrochloride] | 89.5% | – |
| Cc1cccc(C)c1NC(=O)C1CCCCN1C (stereo not given) | 86.9 ± 18% | – |
| COc1cc(/C=C/C(=O)N2CCC=CC2=O)cc(OC)c1OC | – | -2.65% |
| CN(C)c1ccc2nc3ccc(=[N+](C)C)cc-3sc2c1 | 86% | – |
| CN1C(C(=O)Nc2ccccn2)=C(O)c2sccc2S1(=O)=O [Tenoxicam] | 73.4 ± 26% | – |
| CN1C(C(=O)Nc2ccccn2)=C(O)c2sccc2S1(=O)=O | 118% | – |
| Cc1cc2c(c(O)c1-c1c(C)cc3c(c1O)C(=O)C(O)C3C(C)C)C(=O)C(O)C2C(C)C (stereo not given) | – | 83.5% |
| Cc1ncc([N+](=O)[O-])n1CC(O)CCl (stereo not given) | 97.7 ± 18% | – |
| Cc1ncc([N+](=O)[O-])n1CC(O)CCl (stereo not given) [Ornidazole] | 102% | – |
| O=P(O)(O)C(Sc1ccc(Cl)cc1)P(=O)(O)O [Tiludronate disodium] | 116% | – |
| C[C@]12CC[C@H]3C(=CCc4cc(O)ccc43)[C@@H]1CCC2=O | 76.7% | – |
| C[C@]12CC[C@H]3C(=CCc4cc(O)ccc43)[C@@H]1CCC2=O [Equilin] | 115% | 78.8% |
| C[C@]12C=CC(=O)C=C1CC[C@@H]1[C@@H]2[C@@H](O)C[C@@]2(C)[C@H]1CC[C@]2(O)C(=O)COP(=O)(O)O | 59.9% | – |
| O=C1CCC(N2C(=O)c3ccccc3C2=O)C(=O)N1 (racemic) [(±)-Thalidomide] | 104% | – |
| N=C(N)N | 78% | – |
| Cc1c(C(N)=O)cc([N+](=O)[O-])cc1[N+](=O)[O-] | 73.7% | – |
| CNC(=O)[C@H]1O[C@@H](n2cnc3c(NCc4cccc(I)c4)ncnc32)[C@H](O)[C@@H]1O | 101% | – |
| C=C[C@H]1CN2CC[C@H]1C[C@@H]2[C@@H](O)c1ccnc2ccc(OC)cc12 [Quinidine hydrochloride monohydrate] | 69.2% | – |
| C=C[C@H]1CN2CC[C@H]1C[C@@H]2[C@@H](O)c1ccnc2ccc(OC)cc12 | 84.3% | – |
| C=C[C@H]1CN2CC[C@H]1C[C@@H]2[C@@H](O)c1ccnc2ccc(OC)cc12 [Quinidine sulfate] | 96.5% | – |
